Measurements reported in PMC6704462.
Results are given in words; binding and its absence hold for the method and conditions named. Binding seen in cells or lysates may run through a third protein. Some entries that bind do so weakly or less than the wild type. One block for each molecule: values may come before it.

Chains of the proteins cited; added tags and fusions are not shown. Residues count along the entry.
UniProt P17948, residues 27-1338: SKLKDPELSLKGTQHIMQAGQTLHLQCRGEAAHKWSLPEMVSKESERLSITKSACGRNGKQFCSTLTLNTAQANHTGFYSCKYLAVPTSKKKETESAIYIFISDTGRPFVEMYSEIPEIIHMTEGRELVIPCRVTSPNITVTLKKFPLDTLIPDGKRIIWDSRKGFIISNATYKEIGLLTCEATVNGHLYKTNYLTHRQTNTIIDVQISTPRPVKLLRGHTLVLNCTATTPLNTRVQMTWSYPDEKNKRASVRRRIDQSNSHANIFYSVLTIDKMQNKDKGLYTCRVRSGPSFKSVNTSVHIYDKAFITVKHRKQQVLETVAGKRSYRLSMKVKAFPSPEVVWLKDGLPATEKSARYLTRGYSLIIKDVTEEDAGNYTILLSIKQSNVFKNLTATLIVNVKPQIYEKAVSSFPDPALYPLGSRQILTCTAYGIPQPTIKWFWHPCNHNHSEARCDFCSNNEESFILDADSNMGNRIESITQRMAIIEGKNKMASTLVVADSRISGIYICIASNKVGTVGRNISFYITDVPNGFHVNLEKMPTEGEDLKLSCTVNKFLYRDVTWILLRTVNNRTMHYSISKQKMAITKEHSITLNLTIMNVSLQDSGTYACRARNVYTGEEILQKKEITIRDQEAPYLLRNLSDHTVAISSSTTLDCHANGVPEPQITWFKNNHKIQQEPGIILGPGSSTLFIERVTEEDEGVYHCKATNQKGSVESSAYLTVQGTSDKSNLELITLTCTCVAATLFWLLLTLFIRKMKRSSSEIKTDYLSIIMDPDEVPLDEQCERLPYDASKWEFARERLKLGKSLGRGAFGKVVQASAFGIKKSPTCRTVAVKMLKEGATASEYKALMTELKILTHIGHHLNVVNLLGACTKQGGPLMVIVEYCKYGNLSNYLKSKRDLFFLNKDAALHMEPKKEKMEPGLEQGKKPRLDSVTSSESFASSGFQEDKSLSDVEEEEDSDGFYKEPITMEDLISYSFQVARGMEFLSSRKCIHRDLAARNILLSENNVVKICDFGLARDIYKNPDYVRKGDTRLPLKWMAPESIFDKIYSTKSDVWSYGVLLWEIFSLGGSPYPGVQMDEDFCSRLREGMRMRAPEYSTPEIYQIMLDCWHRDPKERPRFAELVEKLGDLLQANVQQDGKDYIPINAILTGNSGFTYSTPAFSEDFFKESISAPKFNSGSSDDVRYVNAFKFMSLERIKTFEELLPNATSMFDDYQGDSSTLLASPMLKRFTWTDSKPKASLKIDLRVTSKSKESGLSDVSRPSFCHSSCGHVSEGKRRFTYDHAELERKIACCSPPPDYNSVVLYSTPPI
UniProt O14786, residues 22-923: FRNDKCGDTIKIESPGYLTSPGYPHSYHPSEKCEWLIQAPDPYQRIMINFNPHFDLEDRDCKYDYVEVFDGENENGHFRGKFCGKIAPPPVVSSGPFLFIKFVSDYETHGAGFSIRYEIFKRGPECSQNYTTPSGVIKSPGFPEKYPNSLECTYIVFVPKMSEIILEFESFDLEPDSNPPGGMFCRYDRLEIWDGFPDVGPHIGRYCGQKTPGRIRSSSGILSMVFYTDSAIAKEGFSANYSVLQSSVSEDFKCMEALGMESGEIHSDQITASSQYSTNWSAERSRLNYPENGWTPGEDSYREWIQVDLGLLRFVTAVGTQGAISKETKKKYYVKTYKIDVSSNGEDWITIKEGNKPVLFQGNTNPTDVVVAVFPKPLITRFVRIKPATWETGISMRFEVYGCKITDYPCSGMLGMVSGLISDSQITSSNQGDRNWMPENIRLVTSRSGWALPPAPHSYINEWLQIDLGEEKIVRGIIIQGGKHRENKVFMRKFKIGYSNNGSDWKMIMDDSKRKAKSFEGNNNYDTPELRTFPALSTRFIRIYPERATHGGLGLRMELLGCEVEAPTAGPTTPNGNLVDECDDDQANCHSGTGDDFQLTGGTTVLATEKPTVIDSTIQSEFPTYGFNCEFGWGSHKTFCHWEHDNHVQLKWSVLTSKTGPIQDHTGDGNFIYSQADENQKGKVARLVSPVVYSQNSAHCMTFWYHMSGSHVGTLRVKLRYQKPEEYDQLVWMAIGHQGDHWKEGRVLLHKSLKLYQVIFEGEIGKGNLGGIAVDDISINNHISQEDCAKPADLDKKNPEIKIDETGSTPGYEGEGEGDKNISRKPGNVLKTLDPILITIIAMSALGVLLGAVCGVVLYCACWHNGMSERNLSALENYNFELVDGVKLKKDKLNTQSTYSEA
UniProt P35968, residues 20-1356: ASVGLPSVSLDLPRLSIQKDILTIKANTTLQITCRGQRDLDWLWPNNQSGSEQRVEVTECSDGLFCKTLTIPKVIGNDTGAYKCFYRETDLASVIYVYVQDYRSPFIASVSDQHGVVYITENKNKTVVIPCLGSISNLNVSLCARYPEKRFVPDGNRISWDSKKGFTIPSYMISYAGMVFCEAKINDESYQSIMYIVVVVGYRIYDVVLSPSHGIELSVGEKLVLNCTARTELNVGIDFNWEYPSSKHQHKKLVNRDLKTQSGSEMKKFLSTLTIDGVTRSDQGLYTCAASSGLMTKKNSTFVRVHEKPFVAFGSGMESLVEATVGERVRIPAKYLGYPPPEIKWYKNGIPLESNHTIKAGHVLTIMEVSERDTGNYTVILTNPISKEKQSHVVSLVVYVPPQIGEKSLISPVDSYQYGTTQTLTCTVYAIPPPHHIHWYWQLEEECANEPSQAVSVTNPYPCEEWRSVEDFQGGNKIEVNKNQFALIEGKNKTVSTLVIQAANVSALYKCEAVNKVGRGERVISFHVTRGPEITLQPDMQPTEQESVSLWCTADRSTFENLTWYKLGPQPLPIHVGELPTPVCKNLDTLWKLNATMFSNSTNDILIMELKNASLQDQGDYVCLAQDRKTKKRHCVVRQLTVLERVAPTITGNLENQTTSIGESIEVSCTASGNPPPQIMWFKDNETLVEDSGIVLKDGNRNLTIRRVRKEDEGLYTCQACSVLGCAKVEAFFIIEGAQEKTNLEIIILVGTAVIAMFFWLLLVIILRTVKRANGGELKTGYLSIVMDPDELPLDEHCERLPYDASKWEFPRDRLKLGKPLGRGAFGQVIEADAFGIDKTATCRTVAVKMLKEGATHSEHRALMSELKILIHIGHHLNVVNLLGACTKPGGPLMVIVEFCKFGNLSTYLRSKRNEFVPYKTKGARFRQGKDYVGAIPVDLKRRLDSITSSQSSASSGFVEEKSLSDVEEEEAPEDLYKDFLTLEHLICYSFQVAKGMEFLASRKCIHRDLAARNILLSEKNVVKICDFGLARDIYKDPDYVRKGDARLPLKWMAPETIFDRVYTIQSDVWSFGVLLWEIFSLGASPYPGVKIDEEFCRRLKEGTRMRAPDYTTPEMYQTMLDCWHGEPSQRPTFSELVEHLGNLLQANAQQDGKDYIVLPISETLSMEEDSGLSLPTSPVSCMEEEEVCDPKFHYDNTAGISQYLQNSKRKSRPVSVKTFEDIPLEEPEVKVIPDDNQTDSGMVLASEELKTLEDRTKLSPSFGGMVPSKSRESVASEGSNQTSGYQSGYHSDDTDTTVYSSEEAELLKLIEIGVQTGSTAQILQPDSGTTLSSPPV
UniProt P23467, residues 23-1997: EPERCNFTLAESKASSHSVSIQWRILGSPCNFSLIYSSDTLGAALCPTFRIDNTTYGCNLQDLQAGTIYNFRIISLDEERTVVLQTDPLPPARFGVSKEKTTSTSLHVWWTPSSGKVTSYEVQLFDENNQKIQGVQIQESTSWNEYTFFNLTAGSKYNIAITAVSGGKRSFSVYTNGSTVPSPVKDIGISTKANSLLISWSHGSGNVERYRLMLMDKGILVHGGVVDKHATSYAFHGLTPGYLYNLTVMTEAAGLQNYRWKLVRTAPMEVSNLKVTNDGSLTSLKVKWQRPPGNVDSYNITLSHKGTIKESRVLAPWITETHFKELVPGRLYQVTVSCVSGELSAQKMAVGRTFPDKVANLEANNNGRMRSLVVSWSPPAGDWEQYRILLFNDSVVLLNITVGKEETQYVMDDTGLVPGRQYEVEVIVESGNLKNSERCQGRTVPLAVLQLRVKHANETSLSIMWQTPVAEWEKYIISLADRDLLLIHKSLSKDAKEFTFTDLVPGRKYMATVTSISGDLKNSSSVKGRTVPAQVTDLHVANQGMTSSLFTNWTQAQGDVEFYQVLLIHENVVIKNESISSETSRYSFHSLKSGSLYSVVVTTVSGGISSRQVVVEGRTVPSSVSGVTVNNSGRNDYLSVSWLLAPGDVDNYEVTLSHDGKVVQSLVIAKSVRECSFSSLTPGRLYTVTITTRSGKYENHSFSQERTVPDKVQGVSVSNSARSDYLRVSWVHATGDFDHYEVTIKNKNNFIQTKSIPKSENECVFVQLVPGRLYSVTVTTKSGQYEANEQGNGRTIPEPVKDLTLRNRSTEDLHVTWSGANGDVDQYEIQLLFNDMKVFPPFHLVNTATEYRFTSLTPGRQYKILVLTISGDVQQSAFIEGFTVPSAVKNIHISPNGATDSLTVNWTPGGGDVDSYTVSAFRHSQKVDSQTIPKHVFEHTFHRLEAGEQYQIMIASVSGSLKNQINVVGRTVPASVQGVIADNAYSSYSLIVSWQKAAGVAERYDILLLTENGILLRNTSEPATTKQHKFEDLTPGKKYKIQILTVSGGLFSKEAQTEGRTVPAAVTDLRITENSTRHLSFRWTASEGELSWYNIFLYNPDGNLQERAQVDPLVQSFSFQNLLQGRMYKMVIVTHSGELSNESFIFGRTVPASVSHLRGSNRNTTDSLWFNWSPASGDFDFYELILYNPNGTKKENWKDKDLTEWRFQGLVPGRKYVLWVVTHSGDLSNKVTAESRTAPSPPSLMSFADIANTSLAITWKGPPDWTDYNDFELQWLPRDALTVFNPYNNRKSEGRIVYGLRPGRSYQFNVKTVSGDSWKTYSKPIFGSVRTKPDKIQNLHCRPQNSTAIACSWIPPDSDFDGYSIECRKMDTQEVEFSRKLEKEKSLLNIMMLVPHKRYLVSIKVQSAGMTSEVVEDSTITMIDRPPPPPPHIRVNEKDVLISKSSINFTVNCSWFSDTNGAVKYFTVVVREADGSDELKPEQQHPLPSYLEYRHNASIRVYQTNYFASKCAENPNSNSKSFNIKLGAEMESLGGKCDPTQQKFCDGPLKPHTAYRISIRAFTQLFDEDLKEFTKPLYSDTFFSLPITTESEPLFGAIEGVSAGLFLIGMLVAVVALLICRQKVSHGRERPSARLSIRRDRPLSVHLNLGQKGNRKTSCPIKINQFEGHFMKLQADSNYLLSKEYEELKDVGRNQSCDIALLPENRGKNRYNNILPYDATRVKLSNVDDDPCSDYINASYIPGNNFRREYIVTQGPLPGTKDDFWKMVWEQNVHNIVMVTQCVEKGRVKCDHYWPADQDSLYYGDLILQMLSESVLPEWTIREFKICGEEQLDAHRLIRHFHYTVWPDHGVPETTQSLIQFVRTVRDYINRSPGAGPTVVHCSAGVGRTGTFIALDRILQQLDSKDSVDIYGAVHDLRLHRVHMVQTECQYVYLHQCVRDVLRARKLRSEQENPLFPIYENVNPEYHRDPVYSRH

Key:
[1] = molecular target: VEGF receptor 1 (VEGFR1) (human (endogenous in HUVEC)) (UniProt P17948); test: co-IP; endogenous proteins; HUVECs (siCon or siSALM4 transfected, stimulated with VEGF-A) lysed in NP-40 lysis buffer (50 mM Tris-Cl pH 8.0, 150 mM NaCl, 1% NP-40); immunoprecipitated with antibodies against NRP1, NRP2, VEGFR1, VEGFR2 or IgG at 4°C overnight, protein A agarose; Western blot
[2] = molecular target: T1, neuropilin (NRP) 2 (human (endogenous in HUVEC)) (UniProt O60462); test: as above
T1 sequence: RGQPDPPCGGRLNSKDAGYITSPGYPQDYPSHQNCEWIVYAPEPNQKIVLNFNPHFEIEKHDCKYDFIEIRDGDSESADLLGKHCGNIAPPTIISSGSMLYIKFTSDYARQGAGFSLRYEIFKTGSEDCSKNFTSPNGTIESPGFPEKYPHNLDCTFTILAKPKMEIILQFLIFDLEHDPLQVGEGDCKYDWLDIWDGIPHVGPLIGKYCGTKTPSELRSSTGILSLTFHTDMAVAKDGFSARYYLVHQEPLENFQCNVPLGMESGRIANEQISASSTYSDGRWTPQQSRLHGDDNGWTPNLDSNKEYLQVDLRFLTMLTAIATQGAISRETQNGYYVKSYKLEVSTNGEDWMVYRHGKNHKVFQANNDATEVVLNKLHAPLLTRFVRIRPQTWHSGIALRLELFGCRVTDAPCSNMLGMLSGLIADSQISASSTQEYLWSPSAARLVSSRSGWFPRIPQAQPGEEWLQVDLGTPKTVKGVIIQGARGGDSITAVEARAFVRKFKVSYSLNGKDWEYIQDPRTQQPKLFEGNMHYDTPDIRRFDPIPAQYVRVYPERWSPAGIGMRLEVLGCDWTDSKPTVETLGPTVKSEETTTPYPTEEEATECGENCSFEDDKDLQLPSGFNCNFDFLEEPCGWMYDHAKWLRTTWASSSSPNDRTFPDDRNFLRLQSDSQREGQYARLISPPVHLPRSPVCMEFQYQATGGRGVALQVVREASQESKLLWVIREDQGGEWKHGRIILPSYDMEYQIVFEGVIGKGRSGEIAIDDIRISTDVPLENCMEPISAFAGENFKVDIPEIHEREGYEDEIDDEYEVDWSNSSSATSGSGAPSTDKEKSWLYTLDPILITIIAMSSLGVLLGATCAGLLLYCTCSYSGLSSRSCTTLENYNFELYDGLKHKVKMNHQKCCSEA

[3] = molecular target: neuropilin (NRP) 1 (human (endogenous in HUVEC)) (UniProt O14786); test: as above
[4] = molecular target: VEGF receptor 2 (VEGFR2) (human (endogenous in HUVEC)) (UniProt P35968); test: as above
[5] = molecular target: VE–protein tyrosine phosphatase (VE-PTP) (human (endogenous in HUVEC)) (UniProt P23467); test: co-IP; HUVEC lysate; VE-PTP and PTP1B antibodies used for immunoprecipitation; Western blot for SALM4
[6] = molecular target: T2, PTP1B (human (endogenous in HUVEC)) (UniProt P18031); test: as above
T2 sequence: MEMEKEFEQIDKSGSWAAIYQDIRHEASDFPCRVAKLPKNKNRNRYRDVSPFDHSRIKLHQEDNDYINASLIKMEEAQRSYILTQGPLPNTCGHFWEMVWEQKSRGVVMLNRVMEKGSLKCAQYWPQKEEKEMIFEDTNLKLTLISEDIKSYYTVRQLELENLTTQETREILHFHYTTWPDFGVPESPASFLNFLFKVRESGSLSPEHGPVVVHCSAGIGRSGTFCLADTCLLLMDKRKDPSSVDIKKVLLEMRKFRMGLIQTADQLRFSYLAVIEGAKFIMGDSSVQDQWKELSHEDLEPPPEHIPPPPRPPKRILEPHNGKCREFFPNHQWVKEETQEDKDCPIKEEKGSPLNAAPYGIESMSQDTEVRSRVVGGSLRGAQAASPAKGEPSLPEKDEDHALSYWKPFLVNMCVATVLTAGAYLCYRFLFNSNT

[7] = molecular target: full-length human neuropilin (NRP) 1, transfected construct (human) (UniProt O14786); test: co-IP; HUVECs transfected with pEGFP-N1 and pFLAG-CMV2 constructs of full-length human SALM4, NRP1 and VEGFR2, harvested 24 h after transfection; GFP and Flag M2 antibodies used for immunoprecipitation; Western blot
[8] = molecular target: full-length human VEGFR2, transfected construct (human) (UniProt P35968); test: as above

Molecule: neuropilin (NRP) 1 (from UniProt O14786 22-923) (receptor)
- binding [1]: binds

B2: full-length human SALM4, transfected construct (protein, UniProt Q9BTN0 17-628)
chain: SSPPQSATPSPCPRRCRCQTQSLPLSVLCPGAGLLFVPPSLDRRAAELRLADNFIASVRRRDLANMTGLLHLSLSRNTIRHVAAGAFADLRALRALHLDGNRLTSLGEGQLRGLVNLRHLILSNNQLAALAAGALDDCAETLEDLDLSYNNLEQLPWEALGRLGNVNTLGLDHNLLASVPAGAFSRLHKLARLDMTSNRLTTIPPDPLFSRLPLLARPRGSPASALVLAFGGNPLHCNCELVWLRRLAREDDLEACASPPALGGRYFWAVGEEEFVCEPPVVTHRSPPLAVPAGRPAALRCRAVGDPEPRVRWVSPQGRLLGNSSRARAFPNGTLELLVTEPGDGGIFTCIAANAAGEATAAVELTVGPPPPPQLANSTSCDPPRDGDPDALTPPSAASASAKVADTGPPTDRGVQVTEHGATAALVQWPDQRPIPGIRMYQIQYNSSADDILVYRMIPAESRSFLLTDLASGRTYDLCVLAVYEDSATGLTATRPVGCARFSTEPALRPCGAPHAPFLGGTMIIALGGVIVASVLVFIFVLLMRYKVHGGQPPGKAKIPAPVSSVCSQTNGALGPTPTPAPPAPEPAALRAHTVVQLDCEPWGPGHEPVGP
- binding [7]: no binding
- binding [8]: no binding

Further lines, results first:

- binding [2]: no binding
- binding [1]: no binding
- binding [3]: no binding
- binding [4]: no binding
- binding [5]: no binding
- binding [6]: no binding
B1: synaptic adhesion-like molecule 4 (SALM4) (protein, UniProt Q9BTN0 17-628)
chain: B2 chain

- binding [1]: binds
- binding [4]: binds
B3: neuropilin (NRP) 2 (receptor, UniProt O60462 21-931)
chain: T1 sequence
